## Percent effect of library compounds

The chains behind the UniProt entries cited, without tags or fusion partners. Residues count along the entry.
UniProt Q8IDJ8, 1-583: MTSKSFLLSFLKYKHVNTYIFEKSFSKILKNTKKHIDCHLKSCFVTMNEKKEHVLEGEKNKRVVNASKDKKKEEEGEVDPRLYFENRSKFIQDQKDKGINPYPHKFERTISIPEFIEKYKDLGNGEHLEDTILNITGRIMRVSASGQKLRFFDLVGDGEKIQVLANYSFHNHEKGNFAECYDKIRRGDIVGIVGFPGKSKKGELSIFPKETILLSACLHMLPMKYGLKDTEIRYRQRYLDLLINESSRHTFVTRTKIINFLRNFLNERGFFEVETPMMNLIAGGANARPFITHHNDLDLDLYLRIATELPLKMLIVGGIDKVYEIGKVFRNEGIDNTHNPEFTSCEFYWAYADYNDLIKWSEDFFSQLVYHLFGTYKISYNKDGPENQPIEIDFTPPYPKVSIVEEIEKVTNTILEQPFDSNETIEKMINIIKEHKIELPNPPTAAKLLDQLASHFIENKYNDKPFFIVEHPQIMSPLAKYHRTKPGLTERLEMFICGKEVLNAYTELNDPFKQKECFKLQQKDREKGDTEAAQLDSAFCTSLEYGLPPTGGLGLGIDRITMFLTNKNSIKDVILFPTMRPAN
UniProt I6X8D2, whole entry: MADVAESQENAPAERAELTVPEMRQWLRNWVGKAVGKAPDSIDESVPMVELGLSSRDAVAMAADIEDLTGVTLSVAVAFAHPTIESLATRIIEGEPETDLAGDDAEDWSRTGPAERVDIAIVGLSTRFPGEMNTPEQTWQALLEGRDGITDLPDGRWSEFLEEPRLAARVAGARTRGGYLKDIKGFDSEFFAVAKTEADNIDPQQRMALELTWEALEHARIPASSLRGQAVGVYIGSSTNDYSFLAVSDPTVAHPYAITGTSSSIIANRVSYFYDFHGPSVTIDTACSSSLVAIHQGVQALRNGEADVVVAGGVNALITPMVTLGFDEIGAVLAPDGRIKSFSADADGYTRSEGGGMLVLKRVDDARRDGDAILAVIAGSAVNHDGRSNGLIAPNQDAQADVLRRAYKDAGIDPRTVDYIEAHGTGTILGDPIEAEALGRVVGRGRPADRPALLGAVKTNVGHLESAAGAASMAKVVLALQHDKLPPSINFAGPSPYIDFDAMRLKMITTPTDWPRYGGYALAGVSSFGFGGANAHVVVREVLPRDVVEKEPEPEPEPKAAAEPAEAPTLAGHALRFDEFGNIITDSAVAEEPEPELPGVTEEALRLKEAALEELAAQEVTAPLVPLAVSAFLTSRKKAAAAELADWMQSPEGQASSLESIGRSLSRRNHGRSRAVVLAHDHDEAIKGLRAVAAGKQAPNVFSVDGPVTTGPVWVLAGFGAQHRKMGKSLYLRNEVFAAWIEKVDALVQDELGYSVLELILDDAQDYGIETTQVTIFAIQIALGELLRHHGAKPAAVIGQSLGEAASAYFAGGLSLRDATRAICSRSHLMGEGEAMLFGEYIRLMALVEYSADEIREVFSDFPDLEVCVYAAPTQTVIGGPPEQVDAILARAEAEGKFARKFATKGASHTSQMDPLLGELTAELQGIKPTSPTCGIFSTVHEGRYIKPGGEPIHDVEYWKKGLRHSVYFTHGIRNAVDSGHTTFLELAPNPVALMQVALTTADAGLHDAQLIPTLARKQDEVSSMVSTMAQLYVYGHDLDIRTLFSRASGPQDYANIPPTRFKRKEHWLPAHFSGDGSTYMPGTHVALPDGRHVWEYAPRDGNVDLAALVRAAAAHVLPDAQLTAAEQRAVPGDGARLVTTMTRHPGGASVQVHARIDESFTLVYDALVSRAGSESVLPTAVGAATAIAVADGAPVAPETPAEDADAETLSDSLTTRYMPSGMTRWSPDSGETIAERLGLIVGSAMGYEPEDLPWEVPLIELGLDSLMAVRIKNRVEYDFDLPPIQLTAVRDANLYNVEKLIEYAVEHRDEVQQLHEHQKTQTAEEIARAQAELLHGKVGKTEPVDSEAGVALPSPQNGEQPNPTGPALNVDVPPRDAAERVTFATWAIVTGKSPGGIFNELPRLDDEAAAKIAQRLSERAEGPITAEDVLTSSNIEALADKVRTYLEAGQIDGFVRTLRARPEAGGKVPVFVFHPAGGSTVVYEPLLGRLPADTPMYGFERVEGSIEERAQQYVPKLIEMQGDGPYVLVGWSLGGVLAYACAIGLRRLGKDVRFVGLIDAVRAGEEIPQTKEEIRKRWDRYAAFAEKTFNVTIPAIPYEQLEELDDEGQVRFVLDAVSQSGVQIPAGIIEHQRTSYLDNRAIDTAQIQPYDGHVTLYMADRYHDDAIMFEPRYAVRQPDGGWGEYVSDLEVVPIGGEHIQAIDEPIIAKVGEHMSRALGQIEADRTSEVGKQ
UniProt P9WNZ1, whole entry: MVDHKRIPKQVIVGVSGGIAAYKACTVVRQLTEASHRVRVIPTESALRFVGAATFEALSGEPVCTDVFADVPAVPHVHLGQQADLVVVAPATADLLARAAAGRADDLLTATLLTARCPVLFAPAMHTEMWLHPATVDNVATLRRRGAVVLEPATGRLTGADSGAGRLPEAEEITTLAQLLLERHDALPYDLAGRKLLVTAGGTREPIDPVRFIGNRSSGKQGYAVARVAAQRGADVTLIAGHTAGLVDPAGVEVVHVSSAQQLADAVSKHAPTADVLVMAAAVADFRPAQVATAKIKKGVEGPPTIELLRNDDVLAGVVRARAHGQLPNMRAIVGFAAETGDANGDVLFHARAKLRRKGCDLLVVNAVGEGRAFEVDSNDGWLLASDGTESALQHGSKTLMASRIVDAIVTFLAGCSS
UniProt Q4DA54, 1-478: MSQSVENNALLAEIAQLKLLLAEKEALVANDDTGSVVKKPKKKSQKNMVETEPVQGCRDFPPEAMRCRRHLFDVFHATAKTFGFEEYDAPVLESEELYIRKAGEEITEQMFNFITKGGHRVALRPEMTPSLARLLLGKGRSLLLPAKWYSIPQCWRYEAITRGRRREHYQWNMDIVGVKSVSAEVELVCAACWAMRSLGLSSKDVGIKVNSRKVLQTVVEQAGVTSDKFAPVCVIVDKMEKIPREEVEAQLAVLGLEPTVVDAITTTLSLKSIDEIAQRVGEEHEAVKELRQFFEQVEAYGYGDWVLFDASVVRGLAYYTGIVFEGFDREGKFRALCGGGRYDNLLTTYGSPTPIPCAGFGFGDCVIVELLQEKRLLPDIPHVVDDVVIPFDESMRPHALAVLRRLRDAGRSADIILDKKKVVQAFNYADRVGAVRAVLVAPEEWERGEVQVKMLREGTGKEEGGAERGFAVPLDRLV
UniProt P9WFT3, whole entry: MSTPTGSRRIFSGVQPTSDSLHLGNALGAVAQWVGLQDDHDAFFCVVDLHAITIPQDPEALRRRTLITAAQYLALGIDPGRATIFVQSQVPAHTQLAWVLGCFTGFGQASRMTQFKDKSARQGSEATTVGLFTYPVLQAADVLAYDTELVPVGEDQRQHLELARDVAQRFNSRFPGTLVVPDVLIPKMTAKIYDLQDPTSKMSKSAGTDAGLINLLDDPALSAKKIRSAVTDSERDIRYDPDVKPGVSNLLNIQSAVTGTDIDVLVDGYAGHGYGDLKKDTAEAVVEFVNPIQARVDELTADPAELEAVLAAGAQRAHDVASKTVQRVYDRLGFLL
UniProt P9WPC5, whole entry: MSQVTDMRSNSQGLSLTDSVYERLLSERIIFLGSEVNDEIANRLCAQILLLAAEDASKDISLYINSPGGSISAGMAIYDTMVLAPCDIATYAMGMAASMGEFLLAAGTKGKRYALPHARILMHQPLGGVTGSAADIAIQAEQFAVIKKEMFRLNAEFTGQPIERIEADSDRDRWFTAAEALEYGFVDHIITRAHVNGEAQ
UniProt P9WPC3, whole entry partner: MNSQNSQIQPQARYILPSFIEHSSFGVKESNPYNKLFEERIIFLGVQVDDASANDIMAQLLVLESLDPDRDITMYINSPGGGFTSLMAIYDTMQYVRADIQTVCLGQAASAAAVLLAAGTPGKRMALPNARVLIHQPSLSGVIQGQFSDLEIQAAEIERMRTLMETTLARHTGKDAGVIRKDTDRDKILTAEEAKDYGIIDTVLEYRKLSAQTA

A: 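Lysine-tRNA ligase, Plasmodium falciparum 3D7 (UniProt Q8IDJ8). Enzyme assay of the cytosolic lysyl-tRNA synthetase in 384-well plates, read by luminescence. Compounds at 30 µM. Direction is inferred from only a few compounds that gave an IC50; most scored high, so higher reads as stronger inhibition. About 69,000 compounds were tested under these conditions; 0.071% (about 49) showed 50% or more at least once.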
B: 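Polyketide synthase Pks13, Mycobacterium tuberculosis (UniProt I6X8D2). Enzyme assay of the thioesterase domain of polyketide synthase 13; the read-out is not stated. Concentration: 30 µM. The record gives no direction; the compounds picked for IC50 retests had high values, so higher reads as stronger inhibition. Of about 67,000 compounds tested this way, about 300 (0.46%) reached 50% or more in at least one test.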
C: 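Enzyme assay of CoaBC with a phosphate dye (Biomol Green) read at 650 nm. Target: Coenzyme A biosynthesis protein CoaBC, Mycobacterium tuberculosis (UniProt P9WNZ1). Concentration: 30 µM. Higher reads as stronger inhibition, judged from the few compounds that gave an IC50. Most strong results did not repeat in a second test. About 67,000 compounds were tested under these conditions; 0.06% (about 40) showed 50% or more at least once.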
D: 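Histidine-tRNA ligase, Trypanosoma cruzi CL Brener (UniProt Q4DA54). Enzyme assay of histidyl-tRNA synthetase; the read-out is not stated. Tested at 30 µM. Direction is inferred from retests: higher values go with stronger inhibition. About 69,000 compounds were tested under these conditions; 0.045% (about 31) showed 50% or more at least once.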
E: 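Enzyme assay of tryptophanyl-tRNA synthetase; the read-out is not stated. Target: Tryptophan-tRNA ligase, Mycobacterium tuberculosis (UniProt P9WFT3). Compounds at 10 µM. Higher most likely means stronger inhibition; the record gives no direction and few retests gave an IC50. Of about 65,000 compounds tested this way, about 64 (0.098%) reached 50% or more in at least one test.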
F: 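ClpP1P2, Mycobacterium tuberculosis (UniProt P9WPC5 and UniProt P9WPC3). Protease assay of ClpP1P2, read by the AMC dye that it sets free. Compounds at 50 µM. Direction is inferred from only a few compounds that gave an IC50; most scored high, so higher reads as stronger inhibition. Most other retested compounds had strongly negative values. Size under these conditions: about 69,000 compounds, about 10 of them at 50% or above in at least one test.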

Each number is a percent effect as filed. The record does not define 0% and 100%; most values in the screen are far below 50% and negative numbers occur (in some assays of this library far below -100). Compounds were drawn at random from those tested, without regard to their results.

For CCOCCCNCc1cc2c(C)cc(C)cc2n2c(=O)n(C)nc12 the result was A: 2.729%; B: 22.36%; C: 0.7264%; D: 7.778%; F: -79.46%. Result for Cc1nccn1C1CCCN(C(=O)c2cccc(S(C)(=O)=O)c2)C1 (centres undefined) was A: 0.1521%; B: -19.81%; C: 9.797%; D: 5.143%; E: 4.786%; F: 11.83%. Result for O=C(c1ccsc1)N1CCOC2(CCN(Cc3cccnc3)CC2)C1 was A: -2.824%; B: -37.22%; C: -7.995%; D: 5.946%; E: -1.994%; F: 4.7%. For Cc1cc(C)c(CNc2nc3ccccc3cc2CO)c(=O)[nH]1 the result was A: 3.085%; B: -5.113%; C: 0.6198%; D: 9.524%; E: -3.121%; F: -10.11%. COC(=O)N1CC(C)=C(C)CN1C(=O)Nc1cccc(Cl)c1 gave A: 3.446%; C: -4.54%; D: -1.156%; F: 3.252%.

With Nc1nc(N)c2c(n1)OC1(CCN(C(=O)CC3CCCCN3)CC1)C2 (centres undefined) the screen gave A: -0.1566%; B: 0.5021%; C: -1.914%; D: 12.64%; E: -9.635%; F: 10.83%. For COC[C@@H]1CCCN1C(=O)c1cc(-c2ccc(OC)cc2)n[nH]1 the result was A: 3.23%; B: -44.94%; D: 9.211%; E: -2.89%; F: -2.446%. For CC(NC(=O)Cc1cccs1)(C(N)=O)c1cccc(Cl)c1 (centres undefined) the result was A: -1.591%; B: -11.6%; C: 0%; D: 6.931%; E: -0.000006%; F: -9.62%. With COc1ccc(N2CCC(N3CCOC(C(F)(F)F)C3)CC2)cc1 (centres undefined) the screen gave A: 7.522%; B: -8.553%; C: 8.571%; D: 2.062%; E: -0.2329%; F: -3.611%. CC(C)C(C(=O)N1CCC(N(C)c2cccnn2)CC1)n1cncn1 (centres undefined) read A: -0.578%; B: -8.532%; C: 3.915%; D: 5.263%; E: 0.5477%; F: 7.294%.

CC[C@@]1(O)CCN(c2ncc(Cl)cc2F)C[C@H]1O gave A: 2.43%; B: -5.591%; C: 1.489%; D: 4.046%; E: 1.206%; F: -13.28%. CN(C)C(=O)CO[C@H]1CN(Cc2ccoc2)[C@@H]2COC[C@H]12 gave A: 1.251%; B: -6.737%; C: 3.415%; D: 4.444%; F: -6.934%. With COCCOc1ccc(CNc2nc3ccccc3o2)cn1 the screen gave A: 3.091%; B: -3.721%; C: 3.802%; D: 10%; E: -7.048%; F: 1.851%. For CCCOCCN1CCc2[nH]c(-c3ccc(OC)cc3)nc2C1 the result was A: 0.203%; B: -20.24%; C: 14.16%; D: 3.279%; E: -3.909%; F: 2.879%. CCCN1CCC(N2CCC(Cn3cc(C4CC4)nn3)CC2)CC1 gave A: 3.418%; B: 3.4%; C: 1.35%; D: -1.235%; E: 0.2467%; F: -11.68%.

CC(=O)c1cccc(NCC(=O)NC(N)=O)c1 gave A: 13.13%; B: 0.9316%; C: 2.335%; D: 1.667%; E: 1.899%; F: 14.31%. For CC(C)c1nnc(CN2CCCC(Cn3cncn3)C2)o1 (centres undefined) the result was A: -1.319%; B: -12.05%; C: 0.5263%; D: 6.158%; E: -1.872%; F: -19.96%.

2 of the entries, repeated:

Result for CCOCCCNCc1cc2c(C)cc(C)cc2n2c(=O)n(C)nc12 was A: 2.729%; B: 22.36%; C: 0.7264%; D: 7.778%; F: -79.46%.
Result for CC[C@@]1(O)CCN(c2ncc(Cl)cc2F)C[C@H]1O was A: 2.43%; B: -5.591%; C: 1.489%; D: 4.046%; E: 1.206%; F: -13.28%.

From ChEMBL document CHEMBL3988442, “University of Dundee, Small-Polar-MMV Screening Library” (2021).